## Screening data, single-dose tests

By UniProt entry, the sequences of proteins in these tests, tags left out. Residues count along the entry.
UniProt Q4DA54, 1-478: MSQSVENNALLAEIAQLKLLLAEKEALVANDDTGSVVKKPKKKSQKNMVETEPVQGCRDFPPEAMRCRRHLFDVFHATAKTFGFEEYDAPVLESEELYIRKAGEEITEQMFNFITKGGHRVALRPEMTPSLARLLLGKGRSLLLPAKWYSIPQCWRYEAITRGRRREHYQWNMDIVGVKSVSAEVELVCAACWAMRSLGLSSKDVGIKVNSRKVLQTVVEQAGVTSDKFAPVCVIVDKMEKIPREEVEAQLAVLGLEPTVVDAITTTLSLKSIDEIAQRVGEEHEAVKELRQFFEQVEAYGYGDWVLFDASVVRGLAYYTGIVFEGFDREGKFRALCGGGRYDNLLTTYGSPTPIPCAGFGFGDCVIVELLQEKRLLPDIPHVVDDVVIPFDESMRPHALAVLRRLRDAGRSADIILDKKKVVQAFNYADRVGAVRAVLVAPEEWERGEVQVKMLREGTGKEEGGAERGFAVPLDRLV
UniProt A4I591, 1-473: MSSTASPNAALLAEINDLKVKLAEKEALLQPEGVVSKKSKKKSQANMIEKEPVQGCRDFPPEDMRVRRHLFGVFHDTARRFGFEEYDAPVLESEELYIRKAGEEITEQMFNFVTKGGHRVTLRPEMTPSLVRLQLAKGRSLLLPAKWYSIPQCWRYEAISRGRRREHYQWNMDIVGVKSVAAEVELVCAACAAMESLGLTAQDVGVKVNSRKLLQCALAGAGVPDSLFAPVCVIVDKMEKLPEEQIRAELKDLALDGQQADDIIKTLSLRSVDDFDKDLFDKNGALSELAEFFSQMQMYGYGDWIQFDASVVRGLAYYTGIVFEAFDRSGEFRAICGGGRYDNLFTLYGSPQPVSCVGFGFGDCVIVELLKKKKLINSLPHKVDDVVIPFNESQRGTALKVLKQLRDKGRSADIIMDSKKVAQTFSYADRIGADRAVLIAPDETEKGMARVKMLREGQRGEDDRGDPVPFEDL
UniProt Q8IDJ8, 1-583: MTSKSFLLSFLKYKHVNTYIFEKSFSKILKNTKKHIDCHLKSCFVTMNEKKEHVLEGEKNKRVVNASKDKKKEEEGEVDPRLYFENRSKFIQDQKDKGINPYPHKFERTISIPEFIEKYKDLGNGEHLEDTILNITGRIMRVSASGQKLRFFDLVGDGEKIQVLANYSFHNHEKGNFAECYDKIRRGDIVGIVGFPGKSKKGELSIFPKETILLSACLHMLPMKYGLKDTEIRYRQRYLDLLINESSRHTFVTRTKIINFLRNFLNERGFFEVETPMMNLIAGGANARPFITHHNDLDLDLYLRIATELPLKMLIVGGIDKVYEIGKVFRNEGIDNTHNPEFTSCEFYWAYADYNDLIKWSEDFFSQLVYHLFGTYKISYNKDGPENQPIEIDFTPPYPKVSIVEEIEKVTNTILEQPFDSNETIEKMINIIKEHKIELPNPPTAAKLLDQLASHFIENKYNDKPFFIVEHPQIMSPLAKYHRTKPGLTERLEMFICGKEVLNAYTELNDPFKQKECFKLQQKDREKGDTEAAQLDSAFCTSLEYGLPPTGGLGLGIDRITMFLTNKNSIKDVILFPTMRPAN

A: 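Enzyme assay of histidyl-tRNA synthetase; the read-out is not stated. Target: Histidine-tRNA ligase, Trypanosoma cruzi CL Brener (UniProt Q4DA54). Concentration: 30 µM. The record gives no direction; compounds that gave an IC50 in retests scored well above the rest, so higher reads as stronger inhibition. Of about 69,000 compounds tested this way, about 31 (0.045%) reached 50% or more in at least one test.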
B: 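Histidine-tRNA ligase, Leishmania infantum (UniProt A4I591). Enzyme assay of histidyl-tRNA synthetase; the read-out is not stated. Compounds at 30 µM. Direction is inferred from retests: higher values go with stronger inhibition. The assay is labelled LdHisRS but filed under L. infantum. Size under these conditions: about 69,000 compounds, about 410 of them at 50% or above in at least one test.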
C: 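Lysine-tRNA ligase, Plasmodium falciparum 3D7 (UniProt Q8IDJ8). Enzyme assay of the cytosolic lysyl-tRNA synthetase in 384-well plates, read by luminescence. Compounds at 30 µM. Direction is inferred from only a few compounds that gave an IC50; most scored high, so higher reads as stronger inhibition. About 69,000 compounds were tested under these conditions; 0.071% (about 49) showed 50% or more at least once.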

Each number is a percent effect as filed. The record does not define 0% and 100%; most values in the screen are far below 50% and negative numbers occur (in some assays of this library far below -100). This is an unselected part of the compounds tested.

structure | A | B | C
O=C(Cc1cccs1)N1CC[C@H]2[C@@H]1CCC(=O)N2c1cccnc1 | 0% | 26.83% | -8.593%
CC(C)c1nccc(CN2CCCC(O)(CN(C)C)C2)n1 (configuration not stated) | 5.6% | 0% | -5.302%
Cc1cnc(N2CCC3(CCCN(c4ccc(C)nn4)C3)C2)nc1 (configuration not stated) | 11.57% | 13.33% | -5.751%
COc1nc2ccccc2cc1CN1CCCC(CNC(C)=O)C1 (configuration not stated) | -0.5405% | 18.8% | 3.163%
CC(=O)Nc1nc(C2CCCN(C(=O)CN(C)C)C2)cs1 (configuration not stated) | 3.802% | 6.207% | 1.428%
CS(=O)(=O)NC1CCCN(C(=O)Nc2ccccc2Cn2cccn2)C1 (configuration not stated) | 3.867% | 0% | -2.092%
Cc1cccc(CN2CCCC3(CCN(C4CCSCC4)C3)C2=O)c1 (configuration not stated) | 25.14% | 19.3% | -0.4897%
O=C(Cc1cccs1)N1CC(c2nc(-c3cnccn3)no2)C1 | 2.062% | 10.43% | 8.228%
CC(C)N(Cc1ccccc1)Cc1csc(-c2ncccn2)n1 | 3.665% | 5.172% | 9.125%
CSCc1cccc(C(=O)N2CCN(CC(C)O)CC2)c1 (configuration not stated) | 3.817% | 5.479% | -1.542%
COC(=O)c1ccc(Cn2nc(C)cc2C)cc1 | 4.167% | 0% | -0.5447%
CCN(C(=O)c1cccc2c1OCO2)c1ccc(Br)cn1 | 0.5405% | 8.547% | -2.481%
Cc1nc(CN2CCCC(Nc3ncnc4c3CCC4)C2)no1 (configuration not stated) | 4.202% | 12.28% | 5.217%
c1cnc(N2CCCC(NCc3cccc4c3OCCO4)C2)nc1 (configuration not stated) | 3.008% | -7.143% | 0.9392%
O=C(Cn1cnc2cc3c(cc21)OCCCO3)NCCc1ccccc1 | 4.215% | 8.571% | 0.2733%
Cc1cccc(CN2C[C@@H]3COC[C@]3(CNC(=O)C3CCC3)C2)c1 | 0.5025% | 17.82% | 1.456%
CS(=O)(=O)CCC(=O)N1C[C@@H]2CC[C@H](C1)N(Cc1ccccc1)C2=O | -22.09% | 16.39% | 2.703%
CNC(=O)NC(=O)C(C)N1CCC(c2c[nH]c3ccc(OC)cc23)CC1 (configuration not stated) | 9.195% | 8.065% | 1.543%
OCCN1CCN(Cc2cn(-c3ccccc3)nn2)CC1 | 5.172% | -0.8929% | 3.356%
CS(=O)(=O)N1CCCC12CCCN(C(=O)c1ccc[nH]1)C2 (configuration not stated) | 6.522% | 14.47% | 5.215%
COCCNC(=O)N1CCCC1COc1ccccc1 (configuration not stated) | 4.663% | 2.151% | 3.003%
Cc1nc2cc(C(=O)N3CCCC(n4ccnc4)C3)ccc2n1C (configuration not stated) | 3.468% | 11.61% | 2.141%
Cc1cc(CN(C)C(=O)C(c2ccccc2)N2CCSCC2)no1 (configuration not stated) | 10% | 22.32% | 8.554%
CCOCc1cnc2n1CCN(C(=O)Cc1ccccn1)C2C (configuration not stated) | 6.897% | 16% | 1.086%
CCOC(=O)[C@]12CCCN(Cc3nccs3)C[C@H]1CN(C(C)C)C2 | 3.226% | 11.5% | 3.38%
CCN(CC)Cc1cn2c(n1)CN(Cc1c(C)noc1C)CC2 | 7.263% | 17.31% | 4.179%
Cc1ccsc1C(=O)N1CCC(c2nccn2Cc2ccncc2)CC1 | 0.5025% | 8.8% | -2.537%
Cc1cc(COc2ccc(OC3CCCCNC3=O)cc2)on1 (configuration not stated) | 4.386% | 12.5% | -0.4158%
CCn1cc(C(=O)Nc2cc(C(=O)OC)ccc2C(=O)OC)cn1 | 5.155% | 10.34% | 0.6174%
CN(Cc1ccsc1)C(=O)COC(=O)c1cc(Cl)c[nH]1 | 2.97% | 10.87% | 4.166%
CNc1ccnc(NCC(=O)Nc2cc(C)ccc2OC)n1 | 0.8% | 14.75% | 1.891%
Cc1ccc2nc(C3CCCN3Cc3scnc3C)[nH]c2c1 (configuration not stated) | 5.587% | 5.208% | 7.474%
Cc1cccc(OCC(O)CN2CCC(Cn3cccn3)CC2)c1 (configuration not stated) | 5.413% | 5.128% | -2.452%
Cc1cnn(C2CCN(Cc3ccccc3)C2)c1N (configuration not stated) | 0.6494% | 11.29% | -1.674%
COC1CCN(C(=O)C2CCCC2)CC(=O)N(C)c2ccccc21 (configuration not stated) | 7.865% | -2.041% | 0.7538%
COc1ccccc1[C@@H]1CN(Cc2cnc(N(C)C)nc2)C[C@H]1C(=O)O | 11.64% | 6.061% | 3.964%
Cc1cc(C(=O)N(CC2CCCO2)c2ccncc2)c(C)o1 (configuration not stated) | 5.941% | 16.3% | -0.6435%
COc1ccc(C(C)Nc2ncc(C(N)=O)cc2Cl)cc1F (configuration not stated) | 4.972% | 21.13% | -1.997%
CC(C)(NC(=O)CCc1ccco1)c1ccc2c(c1)OCCO2 | 3.139% | 17.65% | 4.787%
CCn1ccnc1CN1CCCN(C(=O)c2cnc(C)cn2)CC1 | 5.983% | 13.68% | 0.0134%
COc1ccc(C(=O)N(C)Cc2nnc3ccccn23)c(OC)c1 | -2.642% | 10.67% | 2.388%
CCCc1[nH]n(C)c(=N)c1-c1ccc2c(c1)OCO2 | 12.14% | 19.15% | 3.305%
CC(C)N1CCOCC2(CN(Cc3cccs3)CCO2)C1 (configuration not stated) | 3.226% | 7.965% | 0.5542%
Cc1ccc(C2CCCN2S(=O)(=O)N(C)Cc2cnn(C)c2)o1 (configuration not stated) | 8.108% | -1.709% | -6.842%
COCC(=O)N1CCCCC1c1nc(C)c2c(n1)N(CC1CC1)C(=O)C2 (configuration not stated) | 8.812% | 17.14% | -1.339%
Cc1cc(NC(=O)c2ccc(F)cc2Br)n(C)n1 | -3.867% | 12.5% | 3.641%
COCC1CN(C(=O)COc2ccccc2)Cc2ncn(C)c21 (configuration not stated) | 7.595% | 13.79% | 14.4%
CC(C)CNC(=O)CNC(=O)c1nc(Cc2c(Cl)cccc2Cl)no1 | 9.278% | 12.09% | 0.8703%

Some entries from above, unchanged:

structure,A,B,C
CCOCc1cnc2n1CCN(C(=O)Cc1ccccn1)C2C (configuration not stated),6.897%,16%,1.086%
Cc1cc(COc2ccc(OC3CCCCNC3=O)cc2)on1 (configuration not stated),4.386%,12.5%,-0.4158%
CCN(CC)Cc1cn2c(n1)CN(Cc1c(C)noc1C)CC2,7.263%,17.31%,4.179%

Data taken from ChEMBL document CHEMBL3988442, “University of Dundee, Small-Polar-MMV Screening Library” (2021).